In patent US4180501 (dated 1979) one finds isolated mass data, which are given here for two substances.

A short description of the data set: Boc solid-phase peptide synthesis; Benzhydrylamine resin. The note with it: whole synthesis, scale 1.0 mmole.

In turn, “N^α,N^ε -bis(L-tyrosyl-D-alanyl-glycyl-L-phenylalanyl)-L-lysine amide” had an isolated mass of 440 mg.
With “N^α,N^ε -bis(L-tyrosyl-D-alanyl-glycyl-L-phenylalanyl-L-methionyl)-L-lysine amide” the figure was 290 mg.
